Tested on: MDA-MB-231 (Breast Cancer)
Assay: MTT cytotoxicity assay, MDA-MB-231 cells, 48 hours
Format: cell-based
Details: 48 hours incubation, read-out: IC50 [MTT Assays] MDA-MB-231 (Breast Cancer)
Description: Cytotoxicity was determined by MTT assays and the IC50 values were determined using Graphpad Prism Software.

`N.N.[Cl][Pt][Cl]` [Cisplatin, reference compound] gave an IC50 of 51.6 ± 6.8 µM.

Reference: patent US6737537B2, “Platinum (II) antitumor compounds” (Parker Hughes Institute, priority 1999, dated 2004)
